In PMC6692068:
Results are given in words; binding and its absence hold for the method and conditions named. Binding seen in cells or lysates may run through a third protein. Some entries that bind do so weakly or less than the wild type.

Amino acid sequences for entries named in this document (tags omitted).
UniProt P0DMV8: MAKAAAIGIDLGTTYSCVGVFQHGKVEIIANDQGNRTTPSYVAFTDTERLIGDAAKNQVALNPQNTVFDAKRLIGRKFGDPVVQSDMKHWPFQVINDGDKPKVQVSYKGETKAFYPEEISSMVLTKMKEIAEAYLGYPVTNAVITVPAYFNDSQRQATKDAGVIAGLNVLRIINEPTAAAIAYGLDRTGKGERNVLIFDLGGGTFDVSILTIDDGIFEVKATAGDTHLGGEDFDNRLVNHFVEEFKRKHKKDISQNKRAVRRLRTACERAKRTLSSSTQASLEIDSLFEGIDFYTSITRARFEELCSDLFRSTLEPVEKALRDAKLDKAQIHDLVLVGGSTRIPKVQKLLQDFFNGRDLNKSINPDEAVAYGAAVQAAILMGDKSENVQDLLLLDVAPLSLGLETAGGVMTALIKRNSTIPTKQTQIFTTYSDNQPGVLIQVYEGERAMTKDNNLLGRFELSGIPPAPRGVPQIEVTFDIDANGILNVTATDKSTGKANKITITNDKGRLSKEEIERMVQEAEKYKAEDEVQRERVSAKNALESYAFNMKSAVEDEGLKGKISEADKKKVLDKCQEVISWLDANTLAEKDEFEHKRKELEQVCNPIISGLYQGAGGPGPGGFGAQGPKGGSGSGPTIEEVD
UniProt P13569: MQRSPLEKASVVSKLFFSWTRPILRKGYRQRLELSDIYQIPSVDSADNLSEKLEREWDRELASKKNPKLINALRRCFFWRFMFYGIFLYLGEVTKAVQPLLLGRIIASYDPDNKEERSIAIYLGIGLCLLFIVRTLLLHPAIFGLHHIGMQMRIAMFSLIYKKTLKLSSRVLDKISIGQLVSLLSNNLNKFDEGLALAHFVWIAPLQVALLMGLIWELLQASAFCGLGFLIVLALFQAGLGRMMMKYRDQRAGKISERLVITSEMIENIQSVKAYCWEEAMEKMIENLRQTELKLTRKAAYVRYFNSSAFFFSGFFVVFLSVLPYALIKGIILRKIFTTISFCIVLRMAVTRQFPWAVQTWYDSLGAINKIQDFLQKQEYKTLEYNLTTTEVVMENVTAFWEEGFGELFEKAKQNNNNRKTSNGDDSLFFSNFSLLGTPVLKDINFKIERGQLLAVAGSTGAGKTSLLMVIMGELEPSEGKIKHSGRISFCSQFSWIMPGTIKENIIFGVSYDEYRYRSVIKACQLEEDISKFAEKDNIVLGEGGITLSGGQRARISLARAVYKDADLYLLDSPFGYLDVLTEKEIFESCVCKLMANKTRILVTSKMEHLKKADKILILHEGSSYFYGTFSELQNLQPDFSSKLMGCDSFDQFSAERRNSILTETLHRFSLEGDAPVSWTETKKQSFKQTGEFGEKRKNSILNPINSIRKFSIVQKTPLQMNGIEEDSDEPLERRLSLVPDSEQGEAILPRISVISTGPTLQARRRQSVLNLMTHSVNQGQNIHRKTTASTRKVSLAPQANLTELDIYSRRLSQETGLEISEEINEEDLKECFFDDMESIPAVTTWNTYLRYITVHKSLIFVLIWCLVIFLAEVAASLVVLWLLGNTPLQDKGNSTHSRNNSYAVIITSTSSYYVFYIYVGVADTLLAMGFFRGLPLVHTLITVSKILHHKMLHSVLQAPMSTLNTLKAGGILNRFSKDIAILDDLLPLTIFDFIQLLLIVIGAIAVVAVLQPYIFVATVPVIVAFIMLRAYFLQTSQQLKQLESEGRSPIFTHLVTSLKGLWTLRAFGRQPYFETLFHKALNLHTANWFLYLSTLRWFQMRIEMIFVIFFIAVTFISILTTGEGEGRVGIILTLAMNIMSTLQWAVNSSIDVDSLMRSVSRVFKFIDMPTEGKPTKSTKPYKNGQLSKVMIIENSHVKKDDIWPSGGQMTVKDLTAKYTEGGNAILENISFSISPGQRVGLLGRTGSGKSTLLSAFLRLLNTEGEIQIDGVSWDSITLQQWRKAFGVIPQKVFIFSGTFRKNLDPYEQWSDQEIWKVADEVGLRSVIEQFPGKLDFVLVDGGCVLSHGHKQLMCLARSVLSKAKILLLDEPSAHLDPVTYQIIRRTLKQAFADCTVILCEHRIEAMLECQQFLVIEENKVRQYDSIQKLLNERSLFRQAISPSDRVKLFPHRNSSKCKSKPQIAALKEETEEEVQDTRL

Biological target: Flag-Hsp70 (UniProt P0DMV8)
Assay: co-IP; Flag-Hsp70 immunoprecipitated with anti-Flag M2 magnetic beads, 2 h at 4°C, from HEK-Tet-On lysate (PBS, 1% TX-100); CFTR induced for 6 h with 20 μM MG132; without or with co-expressed myc-DJA2; washed with PBS, 0.1% TX-100; eluted with FLAG peptide; immunoblot

- binding: binds
Substance: CFTR-3HA (from UniProt P13569 1-1480)
